Assay results as given in PubChem BioAssay AID493014 (National Center for Advancing Translational Sciences (NCATS), 2011).
Values joined by “and” are separate entries in the source; they are usually repeats but may differ in a detail not shown here. Equal values may be shown once. About 170 (0.05%) of roughly 340,000 compounds were called active. The shares of active, inactive and inconclusive entries below differ from those in the screen. Calls come from the whole dose curve; as a rule, active = well fitted inhibition curve with a large enough effect in the signal ratio, with a control signal flat (not every such curve was filed as active); inconclusive = small, poorly fitted or top-dose-only effect, or effect the other way, or a change in a side signal; inactive = flat fitted curve, though single readings scatter; the % refers to the signal ratio. Potencies beside an inconclusive call are fits to weak or partial responses and may not hold up.

Assay: qHTS Assay to Find Inhibitors of Chronic Active B-Cell Receptor Signaling;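 for activity change, negative = inhibition: plate controls were basal doxycycline-induced cells for no effect and cells given 10 µM MG132 for full effect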
Conditions: ABC-DLBCL IkBa-CBG/CBR reporter, luminescence ratio (green luciferase fused to IkBa over red control in TMD8 lymphoma cells), 4 h; activity change, negative = inhibition: at 46.1 µM (top of the series)
In short: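 TMD8 human ABC-DLBCL cells with doxycycline-inducible IκBα–green luciferase fusion and unfused red luciferase, in 0.5% FBS medium; compounds up to 46 uM, 4 h at 37C. Green/red luminescence ratio, filter-overlap corrected, fitted to concentration-response curves.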
Potency is the fitted concentration of half-maximal effect.

Question: Which Potency does the source give for `CCc1sc(C(C2C(=O)CC(C)(C)CC2=O)C2C(=O)CC(C)(C)CC2=O)cc1[N+](=O)[O-]` here?
Answer: inconclusive: 11.2 µM [rising, partial curve, poor fit]

Question: Which Potency does the source give for `NNc1nc(-c2ccccc2)cs1` here?
Answer: inconclusive: 8.91 µM [falling, partial curve]

Question: For `Cc1oc(S(=O)(=O)N2CCCC2)cc1C(=O)Nc1ccccc1`, which activity change, negative = inhibition is on record?
Answer: inconclusive: 18.1%

Question: Which activity change, negative = inhibition does the source give for `O=C(COC(=O)Cc1ccccc1F)Nc1ccc(SC(F)F)cc1` here?
Answer: inconclusive: -0.396%

Question: With `O=C(CNC(=O)c1ccccc1)OCCOc1cccc(Cl)c1` as the compound, how does the activity change, negative = inhibition read?
Answer: inconclusive: 10%

Question: For `O=C(CCN1C(=O)c2ccccc2S1(=O)=O)NCc1ccc(F)cc1`, which activity change, negative = inhibition is on record?
Answer: inconclusive: 5.65%

Question: For `CCOc1ccc2nc(N3CCC(C(=O)Nc4nnc(CC)s4)CC3)sc2c1`, which activity change, negative = inhibition is on record?
Answer: inconclusive: -25.1%

Question: With `Cc1nnc(SCC(=O)N2CCOCC2)c2ccccc12` as the compound, how does the activity change, negative = inhibition read?
Answer: inconclusive: -19.7%

Question: For `CCOC(=O)CSc1nnnn1-c1cc(OC)ccc1OC`, which activity change, negative = inhibition is on record?
Answer: inconclusive: 3.33%

Question: With `Clc1ccccc1Nc1ncnc2c1nnn2Cc1ccccc1` as the compound, how does the Potency read?
Answer: inconclusive: 35.5 µM [falling, single point]

Question: With `COCCNC(=O)Cn1nc(-c2ccc(C)cc2)ccc1=O` as the compound, how does the activity change, negative = inhibition read?
Answer: inactive

Question: Which activity change, negative = inhibition does the source give for `N/C(Cc1ccc([N+](=O)[O-])cc1)=N\OC(=O)Cc1ccc(Cl)cc1` here?
Answer: inactive

Question: With `COc1cc(NC(=O)c2noc3c2CCC3)c(OC)cc1Cl` as the compound, how does the activity change, negative = inhibition read?
Answer: inconclusive: 0.212%

Question: Which Potency does the source give for `Cc1cccc(/N=C/c2c(O)c3ccccc3oc2=O)n1` here?
Answer: inconclusive: 9.2 µM [falling, partial curve]

Question: With `CS(=O)(=O)Nc1cccc(-c2cn3ccccc3n2)c1` as the compound, how does the activity change, negative = inhibition read?
Answer: inconclusive: -0.045%

Question: Which Potency does the source give for `Cc1cc(C)c2c(c1)/C(=N/NC(=O)c1ccc(O)cc1)CCC2` here?
Answer: inconclusive: 28.2 µM [falling, partial curve]

Question: Which activity change, negative = inhibition does the source give for `O=[N+]([O-])c1ccc(CCNc2cccc3ccccc23)c([N+](=O)[O-])c1` here?
Answer: inconclusive: -7.72%

Question: With `Cc1ccc(NC(=O)CSc2nc3ncc(Cl)cc3[nH]2)c(C)c1` as the compound, how does the activity change, negative = inhibition read?
Answer: inconclusive: -28.1%

Question: Which activity change, negative = inhibition does the source give for `CCOc1ccc(C2C(=O)N(C3CCCCCC3)CC(=O)N2CCC2=CCCCC2)cc1OC` (centres undefined) here?
Answer: inactive

Question: With `O=C(/C=C/c1ccc(F)cc1)c1cc(Br)ccc1O` as the compound, how does the activity change, negative = inhibition read?
Answer: inconclusive: 21.4%

Question: For `Fc1ccc(Nc2nc(N3CCOCC3)nc(N3CCOCC3)n2)cc1`, which Potency is on record?
Answer: inconclusive: 6.31 µM [falling, partial curve, poor fit]

Question: For `O=C(C(Cc1ccccc1)NS(=O)(=O)c1cccc2cccnc12)N1CCc2ccccc21` (centres undefined), which activity change, negative = inhibition is on record?
Answer: inconclusive: 6.06%

Question: For `COC(=O)c1ccc(NC(=O)CSC2=Nc3ccccc3C3CC=NN23)cc1` (centres undefined), which Potency is on record?
Answer: inconclusive: 29.1 µM [falling, single point]

Question: Which activity change, negative = inhibition does the source give for `CCN(CC)CCCNC(=O)C1CCN(C(=O)c2oc3cc4sc(N(C)C)nc4cc3c2C)CC1` here?
Answer: inconclusive: -6.8%

Question: For `Cc1cc(NC(=O)COc2cccc(Oc3ccccc3)c2)no1`, which Potency is on record?
Answer: inconclusive: 8.2 µM [falling, partial curve, poor fit]

Question: With `Clc1ccc(-c2noc(CN3CCCC3)n2)cc1` as the compound, how does the activity change, negative = inhibition read?
Answer: inactive

Question: Which activity change, negative = inhibition does the source give for `COc1ccc(CSc2ccc(S(=O)(=O)N3CCCCC3)cn2)cc1F` here?
Answer: inactive

Question: For `COc1ccc2[nH]cc(S(=O)(=O)c3ccc(F)cc3)c(=O)c2c1`, which activity change, negative = inhibition is on record?
Answer: inactive

Question: Which activity change, negative = inhibition does the source give for `CCOc1ccccc1N(C)S(=O)(=O)c1ccc2c(c1)CC(C)N2C(=O)C1CC1` (centres undefined) here?
Answer: inactive

Question: For `CC(C)(C)c1nc2c(s1)CCc1onc(-c3ccc(Cl)cc3)c1-2`, which activity change, negative = inhibition is on record?
Answer: inactive

Question: With `NC(=O)C1CCN(CC(O)COc2ccc(-c3ccccc3)cc2)CC1` (centres undefined) as the compound, how does the activity change, negative = inhibition read?
Answer: inconclusive: 13.9%

Question: With `CC(C)C(=O)Nc1cccc(C(=O)N2CCCCC2C)c1` (centres undefined) as the compound, how does the Potency read?
Answer: inconclusive: 0.411 µM [rising, partial curve, poor fit]

Question: With `CCOC(=O)N1CCN(Cc2nc3cc(NC(=O)CC)ccc3n2C)CC1` as the compound, how does the activity change, negative = inhibition read?
Answer: inactive

Question: Which activity change, negative = inhibition does the source give for `NNC(=O)c1cc(-c2ccccc2)sc1N` here?
Answer: inconclusive: 14.5%

Question: Which Potency does the source give for `CCNc1nc(Oc2c(Cl)cccc2Cl)cc(C(F)(F)F)n1` here?
Answer: inconclusive: 35.5 µM [rising, single point]

Question: Which activity change, negative = inhibition does the source give for `Cc1cc2cc(C(=O)N3CCc4c([nH]c5ccccc45)C3c3ccccn3)ccc2o1` (centres undefined) here?
Answer: inconclusive: -9.7%

Question: With `O=C(N/N=C/c1ccc2c(c1)OCO2)c1ccc2c(c1)OCO2` as the compound, how does the Potency read?
Answer: inconclusive: 3.55 µM [falling, partial curve, poor fit]

Question: For `CCOC(=O)c1cccc(NC(=O)c2ccc(NC(=O)c3ccco3)cc2)c1`, which Potency is on record?
Answer: inconclusive: 22.4 µM [falling, single point]

Question: Which Potency does the source give for `CN(C)c1ccc(N=Nc2nc3ccccc3n2C)cc1` here?
Answer: inconclusive: 5.01 µM [falling, partial curve]

Question: Which Potency does the source give for `CCc1c(C)c2cc(Cl)c(O)c(CN(C)C)c2oc1=O` here?
Answer: inconclusive: 18.4 µM [falling, partial curve, poor fit]

Question: Which activity change, negative = inhibition does the source give for `Cc1ccc(Nc2nc3ccccc3s2)cc1` here?
Answer: inconclusive: 7.42%

Question: Which Potency does the source give for `COc1ccccc1OCC(=O)Nc1nnc(-c2ccco2)s1` here?
Answer: inconclusive: 11.2 µM [falling, single point]

Question: For `CCOc1ccc(C(=O)Nc2ccc(Cl)cn2)cc1Cl`, which activity change, negative = inhibition is on record?
Answer: inconclusive: -1.77%

Question: Which activity change, negative = inhibition does the source give for `O=C1C(Cc2ccc(O)cc2)NC(=S)N1Cc1ccccc1` (centres undefined) here?
Answer: inconclusive: -2.36%

Question: With `O=C(OCc1c(-c2ccccc2)ncc2ccccc12)c1ccc(Br)cc1` as the compound, how does the Potency read?
Answer: inconclusive: 9.2 µM [falling, partial curve]

Question: Which activity change, negative = inhibition does the source give for `COc1ccc(Cl)cc1-n1c(=S)sc2c(=O)[nH]c(SCC(=O)NCC3CCCO3)nc21` (centres undefined) here?
Answer: inactive

Question: For `COc1ccc(C(=O)Nc2cccc(-c3nc4ncccc4o3)c2C)cc1`, which Potency is on record?
Answer: inconclusive: 5.17 µM [activator, full curve]

Question: With `COc1cccc(-c2ccc(NC(=O)C3CCCN(Cc4cnn(C)c4)C3)cc2)c1` (centres undefined) as the compound, how does the activity change, negative = inhibition read?
Answer: inconclusive: -4.77%

Question: For `OCC1CCCCN1C(=S)Nc1cccc(Cl)c1` (centres undefined), which activity change, negative = inhibition is on record?
Answer: inconclusive: 11.5%

Question: With `Cc1ccc(NC(=O)C(C)N=C2NS(=O)(=O)c3ccccc32)cc1F` (centres undefined) as the compound, how does the activity change, negative = inhibition read?
Answer: inconclusive: 10.6%

Question: Which activity change, negative = inhibition does the source give for `O=C(Cc1ccccc1F)Nc1nc(-c2cccs2)cs1` here?
Answer: inconclusive: -22.4%

Question: For `Cn1c(=O)c2cc3c(nc2n(C)c1=O)CC(c1ccccc1)CC3=O` (centres undefined), which activity change, negative = inhibition is on record?
Answer: inconclusive: -8.7%

Question: Which activity change, negative = inhibition does the source give for `COc1cc(/C=N/n2c(-c3ccccc3)n[nH]c2=S)cc(OC)c1OC` here?
Answer: inactive

Question: With `COc1ccc(N2CCN(CCNC(=O)CCCn3c(=O)[nH]c4cc(Cl)ccc4c3=O)CC2)cc1` as the compound, how does the activity change, negative = inhibition read?
Answer: inactive

Question: Which Potency does the source give for `COc1ccccc1N1CCN(CCNC(=O)Nc2cccc(C)c2C)CC1` here?
Answer: inconclusive: 29.1 µM [falling, partial curve, poor fit]

Question: With `CCCOc1ccc(Cc2c(Cl)nc(SC)nc2OC)cc1` as the compound, how does the Potency read?
Answer: inconclusive: 29.1 µM [rising, partial curve, poor fit]

Question: With `COCc1cc(S(=O)c2ccc(Cl)cc2)nc(C)n1` (centres undefined) as the compound, how does the Potency read?
Answer: inconclusive: 17.8 µM [falling, partial curve]

Question: For `CCOc1ccc(N2C(=O)CC(Sc3nnnn3-c3ccccc3)C2=O)cc1` (centres undefined), which activity change, negative = inhibition is on record?
Answer: inconclusive: 10%

Question: Which activity change, negative = inhibition does the source give for `O=C(O)c1ccc(N/N=C/C=C/c2ccccc2[N+](=O)[O-])cc1` here?
Answer: inconclusive: 224%

Question: For `CCN1CCN(c2ccc(S(=O)(=O)N3CCOCC3)cc2NC(=O)c2ccc(C)cc2C)CC1`, which activity change, negative = inhibition is on record?
Answer: inconclusive: 0.833%

Question: Which activity change, negative = inhibition does the source give for `COc1ccc(C(=O)NC2CCN(CC(=O)Nc3c(C)cccc3C)CC2)cc1OC` here?
Answer: inactive

Question: For `COc1ccc(C(=O)Nc2cc(C)on2)cc1S(=O)(=O)N1CC(c2ccccc2)CC1=O` (centres undefined), which activity change, negative = inhibition is on record?
Answer: inconclusive: 18.4%

Question: Which activity change, negative = inhibition does the source give for `O=C(CC(NS(=O)(=O)c1ccc(Cl)cc1)c1ccco1)NCc1ccco1` (centres undefined) here?
Answer: inactive

Question: Which Potency does the source give for `O=C(O)c1ccc(NCc2nc3ccccc3n2Cc2ccccc2)cc1` here?
Answer: inconclusive: 31.6 µM [falling, partial curve]

Question: For `COCCCN(C(=O)CCOc1ccc(C(C)(C)C)cc1)c1c(N)n(Cc2ccccc2)c(=O)[nH]c1=O`, which activity change, negative = inhibition is on record?
Answer: inconclusive: -23.9%

Question: Which activity change, negative = inhibition does the source give for `Cc1cc(C)cc(-c2nc(-c3ccncc3)no2)c1` here?
Answer: inconclusive: 19.9%

Question: With `CCOc1nc(NC(=O)NS(=O)(=O)c2cccc(Cl)c2)nc(-c2ccccc2)n1` as the compound, how does the activity change, negative = inhibition read?
Answer: inactive

Question: Which activity change, negative = inhibition does the source give for `COc1ccc2[nH]c3c(c2c1)CCN1C(=O)N([C@@H](C)C(=O)NCc2ccccc2OC)C(=O)[C@]31C` here?
Answer: inconclusive: -16%

Question: With `NNc1nc(Nc2ccccc2)nc(N2CCCCC2)n1` as the compound, how does the activity change, negative = inhibition read?
Answer: inactive

Question: For `COCCN(C(=O)CSc1n[nH]c(-c2ccccc2)n1)c1c(N)n(Cc2ccccc2)c(=O)[nH]c1=O`, which Potency is on record?
Answer: inconclusive: 2.06 µM [rising, partial curve, poor fit]

Question: With `C=CCNC(=O)c1onc(CSc2ccc(F)cc2)c1C(=O)O` as the compound, how does the Potency read?
Answer: inconclusive: 31.6 µM [rising, single point]

Question: With `CCCCN(C(=O)CSc1nnc(Nc2ccccc2)s1)c1c(N)n(CCC)c(=O)[nH]c1=O` as the compound, how does the activity change, negative = inhibition read?
Answer: inconclusive: 4.18%

Question: Which activity change, negative = inhibition does the source give for `COCCN(CCOC)S(=O)(=O)c1ccc(C(=O)Nc2nnc(CSC)o2)cc1` here?
Answer: inactive

Question: For `Nc1c(-c2cccc(Cl)c2)cnn1-c1cccc([N+](=O)[O-])c1`, which activity change, negative = inhibition is on record?
Answer: inconclusive: 16%

Question: With `O=C(CN1CC(=O)Oc2ccccc21)OCC(=O)c1ccc(F)cc1` as the compound, how does the Potency read?
Answer: inconclusive: 11.2 µM [falling, partial curve]

Question: With `CC(=O)Nc1ccccc1OCC(=O)NC(C)c1ccccc1` (centres undefined) as the compound, how does the activity change, negative = inhibition read?
Answer: inconclusive: -1.07%

Question: With `Cc1nnc(SCC(=O)NCc2ccccc2)n1-c1ccccc1` as the compound, how does the activity change, negative = inhibition read?
Answer: inconclusive: -4.58%

Question: For `CCCCN(C(=O)Nc1ccc(Cl)cc1)C1CCN(C(C)=O)CC1`, which activity change, negative = inhibition is on record?
Answer: inconclusive: 13.8% and inconclusive: 23%

Question: For `Cc1ccc2c(c1)Cc1nc3ccccc3nc1-2`, which Potency is on record?
Answer: inconclusive: 5.01 µM [rising, full curve]
